Drawing on article doi:10.1101/2023.05.31.543024, this text covers binding for 1 molecule.

These are yes or no findings as the source states them, for the method shown. In cells and extracts the contact can be indirect. Some results given as binding are weak or reduced against the parent protein; the word gives no strength. Sequences can lack the tags named with a protein.

The target of one assay is T1, HA-DRG2 E153L (human) (UniProt P55039).
T1 sequence: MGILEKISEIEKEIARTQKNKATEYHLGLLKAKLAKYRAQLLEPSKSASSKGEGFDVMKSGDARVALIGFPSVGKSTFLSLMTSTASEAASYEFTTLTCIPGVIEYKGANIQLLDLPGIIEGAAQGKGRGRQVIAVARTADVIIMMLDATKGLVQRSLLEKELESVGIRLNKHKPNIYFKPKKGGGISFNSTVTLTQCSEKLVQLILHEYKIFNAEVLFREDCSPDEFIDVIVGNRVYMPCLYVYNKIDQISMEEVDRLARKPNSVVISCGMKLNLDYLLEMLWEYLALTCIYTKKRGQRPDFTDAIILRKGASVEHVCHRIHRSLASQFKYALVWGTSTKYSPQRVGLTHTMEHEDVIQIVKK
Description: co-IP.

Assay [1] deals with T2, HA-DRG2 ERAKY (E153L + R258I + A260Y + K262V + Y278D) (human) (UniProt P55039).
T2 sequence: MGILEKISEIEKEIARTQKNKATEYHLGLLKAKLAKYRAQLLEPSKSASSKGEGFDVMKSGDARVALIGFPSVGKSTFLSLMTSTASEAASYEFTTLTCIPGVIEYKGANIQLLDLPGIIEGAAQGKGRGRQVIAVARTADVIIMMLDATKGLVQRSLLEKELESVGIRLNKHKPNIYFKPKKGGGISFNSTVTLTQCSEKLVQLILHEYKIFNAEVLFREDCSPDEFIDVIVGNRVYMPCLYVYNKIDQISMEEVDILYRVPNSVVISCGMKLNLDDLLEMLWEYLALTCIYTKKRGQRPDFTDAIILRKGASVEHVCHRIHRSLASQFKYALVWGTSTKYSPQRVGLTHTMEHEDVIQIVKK
Description: co-IP.

B1: DRG family regulatory protein 2 (DFRP2), endogenous (protein, UniProt Q9H446 1-243)
chain: MTDYGEEQRNELEALESIYPDSFTVLSENPPSFTITVTSEAGENDETVQTTLKFTYSEKYPDEAPLYEIFSQENLEDNDVSDILKLLALQAEENLGMVMIFTLVTAVQEKLNEIVDQIKTRREEEKKQKEKEAEEAEKQLFHGTPVTIENFLNWKAKFDAELLEIKKKRMKEEEQAGKNKLSGKQLFETDHNLDTSDIQFLEDAGNNVEVDESLFQEMDDLELEDDEDDPDYNPADPESDSAD
For B1, the binding entry in the assay with HA-DRG2 E153L (human) is recorded as “binds”; in assay [1], “no binding”.
